This passage reports binding results from article PMC5849714, “Direct coupling of detergent purified human mGlu5 receptor to the heterotrimeric G proteins Gq and Gs” (Scientific Reports, 2018).

By UniProt entry, the sequences of proteins in these tests, tags left out. Where a name states a change or a piece, a line headed by the entry shows the natural chain unless it says otherwise. Residues count along the entry.
UniProt P41594, residues 21-856: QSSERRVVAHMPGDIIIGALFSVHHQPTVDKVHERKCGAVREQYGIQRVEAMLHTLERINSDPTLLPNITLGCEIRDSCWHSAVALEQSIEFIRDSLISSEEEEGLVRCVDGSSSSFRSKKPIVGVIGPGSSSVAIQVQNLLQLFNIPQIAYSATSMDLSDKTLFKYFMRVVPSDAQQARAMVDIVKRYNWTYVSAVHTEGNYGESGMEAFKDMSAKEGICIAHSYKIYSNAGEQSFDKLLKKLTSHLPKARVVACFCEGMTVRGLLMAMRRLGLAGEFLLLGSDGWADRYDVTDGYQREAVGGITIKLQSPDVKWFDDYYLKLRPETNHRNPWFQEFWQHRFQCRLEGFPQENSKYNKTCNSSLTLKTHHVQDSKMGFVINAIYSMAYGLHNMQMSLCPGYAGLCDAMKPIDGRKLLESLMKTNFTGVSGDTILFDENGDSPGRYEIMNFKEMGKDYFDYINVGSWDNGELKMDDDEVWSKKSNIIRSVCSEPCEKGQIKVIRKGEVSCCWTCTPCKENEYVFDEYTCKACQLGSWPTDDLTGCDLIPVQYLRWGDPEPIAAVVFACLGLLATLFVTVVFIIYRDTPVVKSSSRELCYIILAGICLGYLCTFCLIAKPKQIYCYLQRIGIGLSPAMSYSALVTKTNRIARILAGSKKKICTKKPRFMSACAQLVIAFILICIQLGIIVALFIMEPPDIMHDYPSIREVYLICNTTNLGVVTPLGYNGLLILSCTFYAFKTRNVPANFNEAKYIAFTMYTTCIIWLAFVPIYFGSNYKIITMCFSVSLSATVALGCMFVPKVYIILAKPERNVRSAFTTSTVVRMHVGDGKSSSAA

In this test the target is SNAP-mGlu5-Δ856 (FLAG-SNAP-tagged human mGlu5 receptor truncated after A856) (human) (UniProt P41594). Nature of the test: condition: only under reducing conditions (DTT), on SDS-PAGE; reducing SDS-PAGE; SNAP-Red-labelled receptor extracted from HEK293 with 0.83% MNG3/0.083% CHS, supernatant with 10 mM dithiothreitol, 5 min at 37 °C, 4–20% Tris Glycine gel, far-red scan.

No constants are given. Whether binding was seen depends on the method and setting.

Consider “SNAP-mGlu5-Δ856 (FLAG-SNAP-tagged human mGlu5 receptor truncated after A856) (from UniProt P41594-2 21-856)”, for which the binding entry is listed as “no binding”.
